In US20120295802A1, “METHODS AND COMPOSITIONS FOR CANCER TREATMENT RELATING TO BRCA1 BRCT DOMAIN RECOGNITION OF PHOSPHORYLATED BACH1” (priority 2004, published 2012):
Some entries share one result that the patent states for a list of compounds.

Test system: U2OS cells
Experiment: Immunofluorescence: localization and nuclear foci formation of myc-tagged BRCA1 tandem BRCT domains
Type: cell-based
Conditions: un-irradiated U2OS cells, Triton X-100 extracted prior to fixation
Procedure: U2OS cells were seeded onto 18 mm^2 coverslips and transfected with the BRCA1 BRCT construct (residues 1313-1863) and various mutants using FuGene6 transfection reagent (Roche) according to manufacturer's protocol. Thirty hours following transfection, the cells were either treated with 10 Gy of ionizing radiation or mock irradiated and allowed to recover for 120 minutes. Cells were fixed in 3% (v/v) paraformaldehyde/2% (w/v) sucrose for 15 min at RT and permeabilized with a 0.5% (v/v) Triton X-100 solution containing 20 mM Tris-HCl (pH 7.8), 75 mM NaCl, 300 mM sucrose, and 3 mM MgCl2 for 15 min at RT. When necessary, proteins were extracted after IR treatment as described previously. In brief, cells were incubated with extraction buffer (10 mM PIPES pH6.8, 100 mM NaCl, 300 mM sucrose, 3 mM MgCl2, 1 mM EGTA, 0.5% (v/v) Triton X-100) for 5 minutes on ice followed by incubation with extraction stripping buffer (10 mM Tris-HCl pH 7.4, 10 mM NaCl, 3 mM MgCl2, 0.5% (v/v) Triton X-100) for 5 minutes on ice followed by successive washes in ice cold PBS. Slides were fixed as above, stained with primary antibodies at 37° C. for 20 min, then stained with a anti-mouse or anti-rabbit secondary antibody for 20 min (Molecular Probes) at 37° C. Primary antibodies used were mouse anti-myc (Cell Signaling) and rabbit anti-(pSer/pThr)Gln (Cell Signaling). […]

**Q.** For “M1775R: cancer-associated BRCA1 tandem BRCT domain mutant (SEQ ID NO.: 10)”, which “cells displaying 5 or more nuclear foci” value is on record?
**A.** The value was “less than 5%”.
